Measurements taken from patent US20070110817A1, “Biological active blood serum obtained by electrostimulation” (Owen Holding Ltd., priority 2004, published 2007).

Tests used:
Test in all cases: MTT-test cell survival
Format in all cases: cell-based
MCF-7 cells = conditions: Homo sapiens, MCF7
Method: (§1) The blood serum of the present invention is a lyophilized chicken blood treated with electroshock of grade II to III and γ-radiation. The biological active serum was used in two formulations types: (i) serum resuspended in water at a concentration of 100 mg/ml (trial fraction 1) and (ii) the supernatant of the suspension of 100 mg/ml biological active serum in water after three minute of centrifugation of the suspension at 10.000×g (trial fraction 2).
(§2) The cells of the Jurkat and Raji cell line as well as lymphocytes of the human peripheral blood were cultured in plastic tissue culture plates (Nunc or Falcon) in 1640-RPMI medium (Sigma) containing 10% fetal calf serum (FCS, Gibco), 100 units/ml penicilin and 100 μg/ml streptomycin at a temperature of 37° C., at 5% CO2 content and 95% humidity. The cell lines Bro, HeLa, MCF-7, Mg63, HT1080, IMR-32 as well as HepG2 were cultivated as above, however, using DMEM medium (Sigma) instead of 1640-RPMI medium.
(§3) The MTT-test was carried out as described by Mosmann T. (Rapid colorimetric assay for cellular growth and survival: application to proliferation and cytotoxicity assays (1983) J. Immunol. Meth. 65: 55-63).
(§4) To carry out the test cells were collected in the log. phase (adherent cells were collected when they filled about half of the tissue culture plate). They were placed into growth media in a Gorjaew-chamber, counted and subsequently resuspended in medium at a concentration of 50-100×10^6/ml. The cell solutions were placed into the 96 well plates after the addition of the various concentrations of the trial fractions in a total amount of 100 μl. […] As a next step culture medium was removed by suction with a pump and 150 μl dimethyl sulfoxide (DMSO) were added to each well to dissolve blue formazan crystals, which had formed, and the optical density of the solution in each well was detected with a multichannel spectrophotometer with a microplate reader at a wave length of 540 nm (Labsystem). […]

HeLa cells = conditions: Homo sapiens
Method: as §1, §2, §3, §4

HepG2 cells = conditions: Homo sapiens
Method: as §1, §2, §3, §4

Q: For `COc1cccc2c1C(=O)c1c(O)c3c(c(O)c1C2=O)C[C@@](O)(C(=O)CO)C[C@@H]3O[C@H]1C[C@H](N)[C@H](O)[C@H](C)O1` [doxorubicin], which IC50 (MCF-7 cells) is on record?
A: 150 nM

Q: And the IC50 (HeLa cells)?
A: 400 nM

Q: And the IC50 (HepG2 cells)?
A: 100 nM
